# PubChem BioAssay AID1259424 | University of Nebraska Medical Center | 2018
# Assay: 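Seek colon cancer survival genes behaving like KSR1, using a six-gene signature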 (primary screen)
# Cell system: human HCT116 colon cancer cells
# Knock-down reagent: siRNA pool against human genes, 50 nM
# Detection: 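Log2 levels of six mRNAs (branched-DNA multiplex), adjusted by two reference genes and the non-targeting median, then scored against the average KSR1 knockdown pattern as Pearson r and euclidean distance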
# Direction: mean correlation with KSR1 profile and KSR1 correlation: higher = expression change more like KSR1 knockdown; mean distance from KSR1 profile: higher = expression change less like KSR1 knockdown
# This is one part, drawn at random, of about 14,000 reagents. 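Higher correlation or smaller distance means closer resemblance to KSR1 loss; control wells, including KSR1 knockdowns, recur on many plates.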 Not given: the time to read-out.
target gene,mean correlation with KSR1 profile,mean distance from KSR1 profile,"KSR1 correlation, replicate 1","KSR1 correlation, replicate 2","KSR1 correlation, replicate 3"
DTX2 (deltex E3 ubiquitin ligase 2),0.667,0.648,0.694,0.641,0.637
SRP14 (signal recognition particle 14),-0.206,3.17,-0.329,-0.147,-0.225
SIGLEC5 (sialic acid binding Ig like lectin 5),0.413,2.81,0.335,0.492,0.546
CCKBR (cholecystokinin B receptor),0.184,1.31,-0.333,0.239,0.427
XPO6 (exportin 6),-0.446,2.14,-0.349,-0.547,-0.183
CD19 (CD19 molecule),-0.603,1.59,-0.266,-0.673,-0.759
"RAB30 (RAB30, member RAS oncogene family)",-0.281,1.98,-0.363,-0.333,-0.328
DEAF1 (DEAF1 transcription factor),-0.609,2.8,-0.519,-0.576,-0.67
DRAP1 (DR1 associated protein 1),-0.0271,2.45,0.238,-0.115,-0.438
"NPAT (nuclear protein, coactivator of histone transcription)",0.328,1.04,0.579,0.744,-0.057
MATN2 (matrilin 2),-0.186,2.86,-0.167,-0.282,-0.361
APOBEC3D (apolipoprotein B mRNA editing enzyme catalytic subunit 3D),0.0478,1.53,-0.0369,-0.0475,0.129
TMX1 (thioredoxin related transmembrane protein 1),0.493,1.73,0.378,0.327,0.577
FAIM2 (Fas apoptotic inhibitory molecule 2),-0.206,1.84,-0.108,-0.545,0.0264
RUFY2 (RUN and FYVE domain containing 2),-0.622,1.6,-0.756,-0.403,-0.656
BAGE (B melanoma antigen),0.126,1.9,0.166,0.0227,0.0205
XAGE1B (X antigen family member 1B),0.155,1.81,-0.0899,0.406,0.127
HES6 (hes family bHLH transcription factor 6),-0.213,4.03,-0.115,-0.186,-0.287
DSG2 (desmoglein 2),-0.0706,1.97,-0.0303,-0.225,0.0344
SPAG9 (sperm associated antigen 9),-0.556,3.35,-0.484,-0.618,-0.501
ST18 (ST18 C2H2C-type zinc finger transcription factor),0.668,0.756,0.649,0.56,0.703
C6orf47 (chromosome 6 open reading frame 47),-0.946,2.04,-0.941,-0.875,-0.973
FGF2 (fibroblast growth factor 2),0.178,1.49,0.243,-0.21,0.142
TAF3 (TATA-box binding protein associated factor 3),0.687,2.23,0.4,0.645,0.738
HCST (hematopoietic cell signal transducer),-0.505,2.69,-0.474,-0.614,-0.673
ZAP70 (zeta chain of T cell receptor associated protein kinase 70),0.245,1.75,0.654,0.265,-0.699
ESRRG (estrogen related receptor gamma),0.0488,1.43,0.0375,0.109,-0.0761
WDR83 (WD repeat domain 83),0.516,2.01,0.451,0.209,0.473
SCGB1A1 (secretoglobin family 1A member 1),-0.0782,1.93,-0.0437,0.0198,-0.153
BCL7C (BAF chromatin remodeling complex subunit BCL7C),0.211,2.35,0.187,0.203,0.464
SERF1B (small EDRK-rich factor 1B),-0.296,5.58,-0.258,-0.27,-0.345
GPANK1 (G-patch domain and ankyrin repeats 1),0.123,1.64,0.175,0.0943,0.0994
MDH1 (malate dehydrogenase 1),0.453,1.16,0.252,0.363,0.361
PIK3C2A,0.551,3.28,0.572,0.659,0.493
SEPTIN6 (septin 6),0.639,2.03,0.599,0.693,0.554
SHC1 (SHC adaptor protein 1),0.826,1.94,0.711,0.374,0.527
RBMS2 (RNA binding motif single stranded interacting protein 2),0.325,1.34,0.148,-0.524,0.654
LPXN (leupaxin),-0.28,2.24,-0.0484,-0.5,-0.349
POLQ (DNA polymerase theta),0.451,1.99,0.555,0.415,0.399
ALX1 (ALX homeobox 1),0.454,1.34,0.42,0.527,0.19
NCBP2 (nuclear cap binding protein subunit 2),0.515,1.58,0.624,0.416,0.427
H3C2 (H3 clustered histone 2),0.661,0.886,0.677,0.531,0.652
NDRG3 (NDRG family member 3),-0.19,2.08,-0.308,-0.0907,-0.164
GSTT4 (glutathione S-transferase theta 4),0.00347,2.94,-0.0555,0.0371,-0.0962
CDC42BPA (CDC42 binding protein kinase alpha),-0.553,2.33,-0.412,-0.297,-0.779
GIN1 (gypsy retrotransposon integrase 1),-0.866,6.03,-0.64,-0.548,-0.519
IL4 (interleukin 4),-0.268,1.49,-0.114,-0.348,-0.163
RABGGTB (Rab geranylgeranyltransferase subunit beta),-0.268,6.45,-0.228,-0.313,-0.366
TWIST2 (twist family bHLH transcription factor 2),0.0679,3.62,0.125,0.0207,0.271
MYBPC3 (myosin binding protein C3),0.348,0.958,0.399,-0.0224,0.272
